Reference: PubChem BioAssay AID504467 (National Center for Advancing Translational Sciences (NCATS), 2011)
About 7,700 (2.3%) of roughly 330,000 compounds were called active. Inconclusive means that the source gave no clear call. Such entries were picked first, then a sample of the others. Calls follow the shape of the dose curve; as a rule, active = well fitted inhibition curve with a large enough effect; inconclusive = small, poorly fitted or top-dose-only effect, or effect the other way; inactive = flat fitted curve, though single readings scatter. Where the call is inconclusive, the potency comes from a doubtful curve fit.

Experiment: qHTS screen for small molecules that inhibit ELG1-dependent DNA repair in human embryonic kidney (HEK293T) cells expressing luciferase-tagged ELG1; also: nearly all actives have a fitted effect of over 55% in size
Conditions: HEK293T ELG1-luciferase reporter, luminescence, 16 h, DNA damage induced by 5-fluorouridine; activity change, negative = inhibition: at 46.1 µM (top of the series)
Procedure, shortened: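 Quantitative HTS, concentration-response format. 2,000 cells/well co-treated with 5-fluorouridine and compound, 16 hr in 5% CO2 at 37 °C; ONE-Glo luminescence read after 30 min.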
% is scaled to controls: 0 for no effect and ±100 for the full control effect; potency is read from the fitted curve at half-maximal effect.

Structure (SMILES) | Potency | activity change, negative = inhibition
CSc1ccc(/C=N/n2c(C)cc(C)cc2=O)cc1 | inconclusive: 18.4 µM [activator, partial curve] | 
COc1ccc(NC(=O)CSc2nccn2Cc2ccco2)c(OC)c1 | inconclusive: 29.1 µM [activator, single point] | 
NC(=O)NC(=O)CN1C(=O)NC2(CCOc3ccccc32)C1=O (stereo unspecified) | inactive | 
Cc1nc(N2CCOCC2)c2c(C)c(C(=O)Nc3ccc(C(F)(F)F)cc3)sc2n1 | inconclusive: 29.1 µM [inhibitor, single point] | 
O=C(NCCC(=O)N(CCc1ccccc1)Cc1ccccc1)c1ccccc1Cl | inactive | 
COc1ccc(Br)cc1C(=O)N/N=C/c1cccnc1 | inactive | 
Cc1c(C(=O)O)sc(S(=O)(=O)N2CCN(C(=O)Cc3ccccc3)CC2)c1C(=O)O | inconclusive: 29.1 µM [activator, single point] | 
Cc1ccc(-n2c(SCC(=O)NCC3CCCO3)nc3n[nH]c(C)c3c2=N)cc1Cl (stereo unspecified) | inconclusive: 23.1 µM [inhibitor, single point] | 
O=C(Nc1cc(Br)ccc1O)c1cnn2c(C(F)F)cc(C3CC3)nc12 | active: 2.31 µM | 
Cc1ccc2cc(CN(Cc3ccc4c(c3)OCO4)Cc3nnnn3Cc3ccco3)c(=O)[nH]c2c1C | inconclusive: 20.6 µM [inhibitor, single point] | 
COC(=O)c1c(O)cc(C(C)(C)C)n(-c2ccc(F)cc2)c1=O | inactive | 
Cc1ccc(C(=O)Nc2cccc(NC(=O)c3ccc(C)o3)n2)o1 | inconclusive: 20.6 µM [inhibitor, partial curve, poor fit] | 
CC1CCN(c2c(NCc3ccc(C(=O)N4CCN(C5CCCCC5)CC4)cc3)c(=O)c2=O)CC1 | inactive | 
Cc1ccc(S(=O)(=O)NCC(=O)OCc2nnc(-c3ccccc3)o2)cc1C | inconclusive: 20.6 µM [activator, single point] | 
O=C(NCc1nc2ccccc2[nH]1)C1=C[C@@H](C2CC2)C[C@@H](OCc2ccc(CO)cc2)O1 | inconclusive: 3.66 µM [inhibitor, partial curve, poor fit] | 
O=C(NC(=S)Nc1ccccn1)c1cccc([N+](=O)[O-])c1 | inconclusive: 20.6 µM [activator, partial curve] | 
CCc1cccc2c(C(=O)C(NC(C)CC)c3ccccc3)c[nH]c12 (stereo unspecified) | inactive | 
Cc1cc(C=O)c(O)cc1O | inactive | 
COc1ccc(C(=O)c2ccccc2Cl)cc1OC | inactive | 
NC(=S)Nn1c(CCC(=O)O)ccc1-c1ccccc1 | inactive | 
COc1cc2c(N3CCOCC3)cc(O)c(CC(=O)Nc3ccccc3)c2cc1OC | inconclusive: 20.6 µM [inhibitor, partial curve, poor fit] | 
O=[N+]([O-])c1ccc(N2CCN(C(=S)NC3CCCCC3)CC2)cc1 | inconclusive: 15.8 µM [inhibitor, single point] | 
O=C(NCCOc1ccc(F)cc1)C1CCC(=O)N(CCCN2CCCC2=O)C1 (stereo unspecified) | inconclusive: 16.4 µM [activator, partial curve] | 
COc1cc(-c2nnc(-c3ccccc3)o2)cc(OC)c1OC | active: 23.1 µM | 

Exported in markdown: entries from further up

| Structure (SMILES) | Potency | activity change, negative = inhibition |
| --- | --- | --- |
| Cc1nc(N2CCOCC2)c2c(C)c(C(=O)Nc3ccc(C(F)(F)F)cc3)sc2n1 | inconclusive: 29.1 µM [inhibitor, single point] |  |
| O=C(NCCC(=O)N(CCc1ccccc1)Cc1ccccc1)c1ccccc1Cl | inactive |  |
| O=C(Nc1cc(Br)ccc1O)c1cnn2c(C(F)F)cc(C3CC3)nc12 | active: 2.31 µM |  |
| Cc1ccc2cc(CN(Cc3ccc4c(c3)OCO4)Cc3nnnn3Cc3ccco3)c(=O)[nH]c2c1C | inconclusive: 20.6 µM [inhibitor, single point] |  |
| CCc1cccc2c(C(=O)C(NC(C)CC)c3ccccc3)c[nH]c12 (stereo unspecified) | inactive |  |
| COc1cc(-c2nnc(-c3ccccc3)o2)cc(OC)c1OC | active: 23.1 µM |  |

(listing goes on)

Structure (SMILES) | Potency | activity change, negative = inhibition
COC(=O)c1cc(-c2ccc(S(=O)(=O)N3CCCC(C)C3)cc2)c(C(F)(F)F)s1 (stereo unspecified) | inconclusive: 11.6 µM [inhibitor, partial curve, poor fit] | 
COCCCNC(=S)N/N=C/c1ccccc1O | inconclusive: 32.6 µM [activator, partial curve, poor fit] | 
C=CCn1c(=S)[nH]c2ccc(Br)cc2c1=O | inconclusive: 20.6 µM [inhibitor, partial curve, poor fit] | 
O=C(c1ccc(F)cc1)c1ccc(N2CCCC2)cc1 | inconclusive: 14.6 µM [activator, partial curve] | 
CC1CCN(C(=O)CSCc2ccc(Cl)cc2)CC1 | inconclusive: 18.4 µM [activator, partial curve] | 
CC(C)(C)OC(=O)N[C@@H](C(=O)OC(C)(C)C)c1ccc2c(c1)OCO2 | inactive | 
COc1cccc(Cn2c(Oc3ccccc3)nc3c2c(=O)n(C)c(=O)n3C)c1 | inconclusive: 16.4 µM [inhibitor, single point] | 
O=C1CC(=O)N2N=C(c3ccc([N+](=O)[O-])cc3)SC2=N1 | inactive | 
CC1(C)CC(=O)C2=C(C1)N(c1ncn[nH]1)C(N)=C(C#N)C2c1ccccc1 (stereo unspecified) | inactive | 
O=C(Nc1ccc(Cl)cc1)C1CCCN(c2ncnc3c2nc2n3CCCCC2)C1 (stereo unspecified) | active: 23.1 µM | 
O=C(N/N=C\c1c(O)ccc2ccccc12)c1ccc(Cn2cccn2)o1 | inconclusive: 3.26 µM [inhibitor, full curve] | 
Cc1cc(NC(=O)CSc2nc(-c3ccccc3Cl)nc3c2c(=O)n(C)c(=O)n3C)no1 | inactive | 
CCN(Cc1cc2cc(OC)ccc2[nH]c1=O)C(=O)Cc1ccc(OC)cc1 | inconclusive: 29.1 µM [inhibitor, single point] | 
c1ccc(-c2csc(N3CCN(c4ccccn4)CC3)n2)cc1 | inconclusive: 25.9 µM [inhibitor, single point] | 
CCN(CC)c1nc2c3c(nc4c(c3c1C#N)CC(=O)N4c1ccc(Cl)cc1)NC(C)=N2 | inconclusive: 13 µM [inhibitor, partial curve, poor fit] | 
CN(C(=O)C1CCN(S(=O)(=O)c2cccs2)CC1)C1CCCCC1 | inactive | 
c1ccc(-n2ncc3c2ncn2nc(-c4ccco4)nc32)cc1 | inconclusive: 2.06 µM [activator, full curve] | 
O=C(NCCCN1CCOCC1)c1cc2c(s1)CCC2 | inconclusive: 18.4 µM [activator, single point] | 
Cc1[nH]c2ccccc2c1C(=O)COc1ccccc1F | inconclusive: 20.6 µM [activator, partial curve] | 
O=C(N/N=C/c1sc(=O)n(-c2ccccc2)c1Cl)c1ccncc1 | inconclusive: 23.1 µM [inhibitor, single point] | 
Cc1cc(C(=O)N/N=C/c2ccc(-c3cccc(Cl)c3Cl)o2)n[nH]1 | inconclusive: 16.4 µM [activator, partial curve, poor fit] | 
COc1ccc(NC(=S)NCCc2c[nH]c3ccc(OC)cc23)c(OC)c1 | inconclusive: 18.4 µM [inhibitor, single point] | 
Cc1cc(C)n(-c2ccc(C(=O)NCC(c3ccco3)N3CCCC3)cc2)n1 (stereo unspecified) | inactive | 
O=C(CCCOc1ccccc1)N1CCN(C(=O)c2ccco2)CC1 | inconclusive: 29.1 µM [activator, single point] | 

Structure (SMILES) | Potency | activity change, negative = inhibition
CCOC(=O)N1CCc2[nH]c3ccc(C)cc3c2C1 | inconclusive: 23.1 µM [activator, partial curve] | 
O=C(COc1coc(CN2CCN(c3ccc(F)cc3)CC2)cc1=O)NCC1CCCO1 (stereo unspecified) | inactive | 
C/C(=N/NC(=O)c1ccc(-c2ccccc2)cc1)c1cccc(O)c1 | inconclusive: 20.6 µM [activator, partial curve, poor fit] | 
CCCn1nc(C(=O)N2CC(=O)Nc3ccccc32)c2ccccc2c1=O | inconclusive: 6.51 µM [inhibitor, single point] | 
COc1ccc(C(=O)N/N=C(\C)CC(=O)Nc2ccc3c(c2)OCCO3)c(OC)c1 | inactive | 
COc1ccc(-c2cc3nc4n(c(=O)c3s2)CCCCC4)cc1 | inconclusive: 1.83 µM [activator, partial curve] | 
COc1ccc(C)cc1Nc1nc(N)c2ccccc2n1 | inactive | 
CC(C)c1ccc(-c2nnc(SCC(=O)NC3CC3)n2C)cc1 | inconclusive: 20.6 µM [activator, partial curve, poor fit] | 
COc1ccccc1N1CCN(c2ncnc3sc(C(=O)NCC4CCCO4)c(C)c23)CC1 (stereo unspecified) | active: 9.2 µM | 
CCC(C)c1ccc(NC(=O)N2CCN(C(=O)C3CCCO3)CC2)cc1 (stereo unspecified) | inactive | 
COC(=O)CN1C(=O)[C@H]2[C@@H](c3ccc(C)o3)N3C(=O)CN(CCO)C(=O)[C@@]3(C)[C@H]2C1=O | inconclusive: 20.6 µM [activator, single point] | 
O=C(OCC1CC(c2ccccc2)=NO1)c1ccc(Br)cc1 (stereo unspecified) | inconclusive: 25.9 µM [activator, partial curve, poor fit] | 
CSCc1cc(N(C)c2ccccc2)nc(-c2ccccc2)n1 | inactive | 
Cc1cc(C)n(CC(O)Cn2c3ccccc3c3ccccc32)n1 (stereo unspecified) |  | inconclusive: 36.2% [activator]
CCc1ccc(NC(=O)Nc2ccc3c(c2)N(C)C(=O)CS3)cc1 | inconclusive: 23.1 µM [inhibitor, single point] | 
COc1cc2ccccc2cc1C(=O)NCCCN1CCOCC1 | inconclusive: 11.6 µM [activator, partial curve, poor fit] | 
CC(C)NC(=O)CSc1ccccc1C(=O)NNC(=O)Cn1ccc(C(F)(F)F)n1 | inactive | 
COc1ccccc1NC(=O)CSc1nc2ccccc2nc1N1CC(C)OC(C)C1 (stereo unspecified) | inconclusive: 25.9 µM [inhibitor, single point] | 
CC(=O)OCC(=O)Nc1c(C)cc(C)cc1C | inactive | 
CC(=O)c1ccc(NC(=O)CN2C(=O)NC3(CCc4ccccc43)C2=O)cc1 (stereo unspecified) | inactive | 
COc1cccc(OCc2cc(C(=O)N3CCNC(=O)C3Cc3ccccc3)no2)c1 (stereo unspecified) | inconclusive: 14.6 µM [activator, partial curve] | 
O=C(NC(=S)NCCCN1CCOCC1)c1cccc2ccccc12 | inactive | 
CC1CCN(C(=O)CCNC(=O)c2ccccc2)CC1 | inconclusive: 20.6 µM [activator, single point] | 
